Measured values as given in PubChem BioAssay AID248 (DTP/NCI, 2004).
The list does not hold the whole screen: it gathers tests that were run many times, whatever their T/C, doses with no T/C, and many T/C values between a quarter and a half above the control. Other doses and runs of a compound stand elsewhere. T/C: endpoint of the treated group in % of that of the vehicle group. Some entries give survivors of the animals treated and no T/C: the source holds a T/C of zero for them, seemingly a mark for toxic or unscored doses. Some survivor counts are full or nearly so, which does not show that the dose was tolerated: the source hardly ever lists a survival T/C far under the control, and the zero likely stands for such cases as well. Counts of survivors are from the toxicity check (mostly the fifth day) where no day follows; animals may have died later. Schedule codes are those of the source, read here as Q, the interval in days (D) or hours (H), X, the number of doses. Signs of the kind (2×) say how often a value occurs here. Some entries hold several experiments; the values are given in rising order. Where survival is the endpoint, this PubChem deposit counts one and a half times the control or more as active, and values a quarter to a half above the control carry no call in these data; other NCI protocols may use other cut-offs.

Tested on: L1210 leukemia ip in BDF1 mice, survival T/C
Assay: NCI In Vivo Anticancer Drug Screen. Data for tumor model L1210 Leukemia (intraperitoneal) in B6D2F1 (BDF1) mice
Settings: T/C endpoint: mean survival time, higher T/C = longer survival
[1] = dose: 100.0 mg/kg/injection, schedule: Q04DX003 (ip), vehicle: saline
[2] = dose: 200.0 mg/kg/injection, schedule: Q01DX009 (ip), vehicle: saline
[3] = dose: 200.0 mg/kg/injection, schedule: Q04DX003 (ip), vehicle: saline
[4] = dose: 400.0 mg/kg/injection, schedule: Q04DX003 (ip), vehicle: saline
[5] = dose: 400.0 mg/kg/injection, schedule: Q01DX001 (ip), vehicle: saline
[6] = dose: 100.0 mg/kg/injection, schedule: Q01DX009 (ip), vehicle: Klucel (hydroxypropylcellulose) (HPC)
[7] = dose: 200.0 mg/kg/injection, schedule: Q01DX009 (ip), vehicle: saline with Tween-80
[8] = dose: 400.0 mg/kg/injection, schedule: Q01DX009 (ip), vehicle: saline with Tween-80
[9] = dose: 400.0 mg/kg/injection, schedule: Q01DX009 (ip), vehicle: Klucel (hydroxypropylcellulose) (HPC)
[10] = dose: 400.0 mg/kg/injection, schedule: Q01DX001 (ip), vehicle: Klucel (hydroxypropylcellulose) (HPC)
[11] = dose: 100.0 mg/kg/injection, schedule: Q01DX001 (ip), vehicle: saline
[12] = dose: 400.0 mg/kg/injection, schedule: Q04DX003 (ip), vehicle: Klucel (hydroxypropylcellulose) (HPC)
[13] = dose: 200.0 mg/kg/injection, schedule: Q04DX003 (ip), vehicle: Klucel (hydroxypropylcellulose) (HPC)
[14] = dose: 200.0 mg/kg/injection, schedule: Q01DX009 (ip), vehicle: Klucel (hydroxypropylcellulose) (HPC)
[15] = dose: 150.0 mg/kg/injection, schedule: Q01DX001 (ip), vehicle: saline
[16] = dose: 300.0 mg/kg/injection, schedule: Q01DX001 (ip), vehicle: saline

CN(C)CCC=C1c2ccccc2C=Cc2ccccc21
survivor count (dose: 50.0 mg/kg/injection, schedule: Q01DX009 (ip), vehicle: saline): 1 of 6 | survivor count (dose: 100.0 mg/kg/injection, schedule: Q01DX009 (ip), vehicle: saline): 0 of 6 | survivor count [1]: 3 of 4 (2×) | survivor count [2]: 0 of 6 | survivor count [3]: 0 of 4 and 1 of 4 | survivor count (dose: 400.0 mg/kg/injection, schedule: Q01DX009 (ip), vehicle: saline): 0 of 6 | survivor count [4]: 0 of 4 (2×)

CC(NC1=NCCO1)C(O)c1ccccc1 (stereo not given)
survivor count (dose: 75.0 mg/kg/injection, schedule: Q01DX009 (ip), vehicle: saline with Tween-80): 2 of 6 | survivor count (dose: 150.0 mg/kg/injection, schedule: Q01DX009 (ip), vehicle: saline with Tween-80): 0 of 6 | survivor count (dose: 300.0 mg/kg/injection, schedule: Q01DX009 (ip), vehicle: saline with Tween-80): 0 of 6

Clc1ccc2c(Cl)ncnc2c1
survivor count [2]: 2 of 6 | survivor count [5]: 3 of 6

O=C1NC(=O)C2C3CCC(C3)C12 (stereo not given)
survivor count [1]: 0 of 4 | survivor count [3]: 0 of 4 | survivor count [4]: 0 of 4

Cc1ccc2c(c1)c(C)cc(=O)n2C
survivor count (dose: 400.0 mg/kg/injection, schedule: Q01DX001 (ip), vehicle: other): 2 of 4

Cc1c2ccncc2cc2c3ccccc3n(CCO)c12
survivor count (dose: 100.0 mg/kg/injection, schedule: Q04DX003 (ip), vehicle: Klucel (hydroxypropylcellulose) (HPC)): 6 of 6

CCCCCCCCCCCCSC(=O)Nc1ccc([N+](=O)[O-])cc1Cl
survivor count [6]: 3 of 6

NC(=O)c1n[nH]nc1N1CC[N+](CCCl)=N1
T/C [7]: 128 % of control | T/C [8]: 127 % of control | T/C (dose: 400.0 mg/kg/injection, schedule: Q04DX003 (ip), vehicle: saline with Tween-80): 125 % of control

Nc1nc(N)c2nc(CNc3ccc(C(=O)NC(CCC(=O)O)C(=O)O)nc3)cnc2n1 (stereo not given)
T/C (dose: 0.3 mg/kg/injection, schedule: Q01DX009 (ip), vehicle: Klucel (hydroxypropylcellulose) (HPC)): 143 % of control | survivor count (dose: 0.62 mg/kg/injection, schedule: Q01DX009 (ip), vehicle: Klucel (hydroxypropylcellulose) (HPC)): 6 of 6 | survivor count (dose: 1.25 mg/kg/injection, schedule: Q01DX009 (ip), vehicle: Klucel (hydroxypropylcellulose) (HPC)): 5 of 6 | survivor count (dose: 2.5 mg/kg/injection, schedule: Q01DX009 (ip), vehicle: Klucel (hydroxypropylcellulose) (HPC)): 5 of 6 | survivor count (dose: 5.0 mg/kg/injection, schedule: Q01DX009 (ip), vehicle: Klucel (hydroxypropylcellulose) (HPC)): 3 of 6 and 4 of 6 | survivor count (dose: 10.0 mg/kg/injection, schedule: Q01DX009 (ip), vehicle: Klucel (hydroxypropylcellulose) (HPC)): 0 of 6 | survivor count (dose: 20.0 mg/kg/injection, schedule: Q01DX009 (ip), vehicle: Klucel (hydroxypropylcellulose) (HPC)): 1 of 6 | survivor count (dose: 40.0 mg/kg/injection, schedule: Q01DX009 (ip), vehicle: Klucel (hydroxypropylcellulose) (HPC)): 2 of 6 | T/C (dose: 66.0 micrograms/kg/injection, schedule: Q01DX009 (ip), vehicle: Klucel (hydroxypropylcellulose) (HPC)): 130 % of control | T/C (dose: 300.0 micrograms/kg/injection, schedule: Q01DX009 (ip), vehicle: Klucel (hydroxypropylcellulose) (HPC)): 144 % of control

CCOC(=O)/C(C(C)=O)=C(/O)c1ccc(OC(F)(F)C(F)Cl)cc1OC(F)(F)C(F)Cl.CCOC(=O)/C(C(C)=O)=C(/O)c1ccc(OC(F)(F)C(F)Cl)cc1OC(F)(F)C(F)Cl.[Cu] (stereo not given)
survivor count [9]: 6 of 6

Cc1ccc(-c2ccc(-c3ccc(C)cc3)o2)cc1
survivor count (dose: 100.0 mg/kg/injection, schedule: Q01DX001 (ip), vehicle: Klucel (hydroxypropylcellulose) (HPC)): 6 of 6 | survivor count [10]: 6 of 6

Cc1cccc(C)c1NC(=O)Nc1ccc(S(N)(=O)=O)cc1
survivor count [6]: 6 of 6

c1ccc([P+](CCCCCCCCCC[P+](c2ccccc2)(c2ccccc2)c2ccccc2)(c2ccccc2)c2ccccc2)cc1
survivor count (dose: 40.0 mg/kg/injection, schedule: Q01DX001 (ip), vehicle: saline): 0 of 4 | survivor count (dose: 50.0 mg/kg/injection, schedule: Q01DX001 (ip), vehicle: saline): 0 of 4 | survivor count (dose: 80.0 mg/kg/injection, schedule: Q01DX001 (ip), vehicle: saline): 0 of 4 | survivor count [11]: 0 of 4 | survivor count (dose: 200.0 mg/kg/injection, schedule: Q01DX001 (ip), vehicle: saline): 0 of 4 | survivor count [5]: 0 of 4

O=C(CSC1=NCCN1)c1ccccc1
survivor count [7]: 2 of 6 | survivor count [8]: 0 of 6

C=C(C)C1CCC2CC/C(=N\Nc3ccccc3C(=O)OC)C=C2C1 (stereo not given)
survivor count [12]: 6 of 6

CCCCCCCCCC(=O)N(C(C)C)C(C)C
survivor count (dose: 400.0 mg/kg/injection, schedule: Q01DX009 (ip), vehicle: carboxymethylcellulose (CMC)): 3 of 3

COc1ccc(CCN=C(N)CCl)cc1
survivor count (dose: 400.0 mg/kg/injection, schedule: Q04DX002 (ip), vehicle: saline): 0 of 3

COc1ccc2cc[n+](C)cc2c1
survivor count [1]: 1 of 6 | survivor count [3]: 0 of 6 | survivor count [4]: 0 of 6

CC(NC(=O)NCCCl)C(O)c1ccccc1 (stereo not given)
survivor count [13]: 6 of 6 | survivor count [12]: 0 of 6

Cc1ccc(S(=O)(=O)NC(=S)Nc2ccccc2)cc1
survivor count [5]: 2 of 4

O=C(O)C1CCCCC1/C=N/Nc1ccc([N+](=O)[O-])cc1[N+](=O)[O-] (stereo not given)
survivor count [11]: 6 of 6

O=CC(=O)c1ccccc1
survivor count (dose: 12.5 mg/kg/injection, schedule: Q01DX009 (ip), vehicle: saline): 6 of 6 | survivor count [6]: 2 of 6 | survivor count [14]: 0 of 6 | survivor count [7]: 0 of 6 | survivor count [9]: 0 of 6 | survivor count [8]: 0 of 6

CC(C)(C)N1CC1
survivor count [5]: 1 of 6

CCN(CC)CCCC(C)Nc1cc(N)nc2nc(-c3cc(OC)c(OC)c(OC)c3)cnc12 (stereo not given) (tested in a mixture with another compound)
survivor count [15]: 0 of 6 | survivor count [16]: 0 of 6

CN(C)CCCN1Cc2ccccc2Cc2ccccc21
survivor count [3]: 2 of 4 | survivor count [4]: 0 of 4

Cc1cc(/C=N/Nc2ccc3cccc(O)c3n2)c(O)c2ncccc12
survivor count (dose: 100.0 mg/kg/injection, schedule: Q01DX001 (ip), vehicle: carboxymethylcellulose (CMC)): 4 of 4 | survivor count (dose: 400.0 mg/kg/injection, schedule: Q01DX001 (ip), vehicle: carboxymethylcellulose (CMC)): 3 of 4

Nc1ccc(Nc2c3ccccc3nc3ccccc23)cc1
survivor count [1]: 2 of 6 | survivor count [3]: 0 of 6 | survivor count [4]: 0 of 6

CCC(O)C(CCN(C)C)(C(=O)N(C)C)c1ccccc1 (stereo not given)
survivor count [16]: 0 of 6

CC(=O)OC(c1ccccc1)C1CCCCC1N1CCCCC1 (stereo not given)
survivor count [10]: 2 of 6

C=CCC/C(=C/C(=O)OCC)OCC=C
survivor count [7]: 3 of 3

CCN(CC)CCNCc1ccc(Cl)cc1
survivor count (dose: 150.0 mg/kg/injection, schedule: Q04DX003 (ip), vehicle: Klucel (hydroxypropylcellulose) (HPC)): 3 of 6 | survivor count (dose: 300.0 mg/kg/injection, schedule: Q04DX003 (ip), vehicle: Klucel (hydroxypropylcellulose) (HPC)): 0 of 6

CCNC(C)(C)C(Cl)c1ccc(Cl)s1 (stereo not given)
survivor count [14]: 3 of 6 | survivor count [13]: 2 of 6 | survivor count [12]: 2 of 6

CC(C)=NNP(Br)(c1ccccc1)(c1ccccc1)c1ccccc1
survivor count (dose: 75.0 mg/kg/injection, schedule: Q01DX001 (ip), vehicle: saline): 0 of 6 | survivor count [15]: 0 of 6 | survivor count [16]: 0 of 6
